Results are given in words; binding and its absence hold for the method and conditions named. Some entries that bind do so weakly or less than the wild type.
Tests used:
[1] = target: T1, E2F1-LB, Dp-1 (E2F1 fragment with C-terminal Large BiT, co-expressed with Dp-1 fragment carrying Large BiT) (human) (UniProt Q01094+Q14186); test: NanoBiT split-luciferase complementation, transiently transfected HEK293 cells
[2] = target: T2, E2F1-Dp-1-LB (E2F1 linked to Dp-1 through GGSG, Large BiT at the C-terminus; stable cell line #11) (human) (UniProt Q01094+Q14186); test: NanoBiT split-luciferase complementation, HEK293 CDK DKO clones stably expressing E2F1-Dp-1/LB
[3] = target: T2, E2F1-Dp-1-LB (E2F1 linked to Dp-1 through GGSG, Large BiT at the C-terminus; stable cell line #11) (human); test: NanoBiT split-luciferase complementation, stable cell line #11 with CDK4/CDK6, Cyclin D1 and p16
[4] = target: T1, E2F1-LB, Dp-1 (E2F1 fragment with C-terminal Large BiT, co-expressed with Dp-1 fragment carrying Large BiT) (human); test: NanoBiT split-luciferase complementation, HEK293 cells with CDK4 or CDK6 treated with a CDK inhibitor

Chains of the proteins cited; added tags and fusions are not shown. Lines headed by an entry give the natural chain unless they say otherwise; changes in a name come on top.
UniProt Q01094: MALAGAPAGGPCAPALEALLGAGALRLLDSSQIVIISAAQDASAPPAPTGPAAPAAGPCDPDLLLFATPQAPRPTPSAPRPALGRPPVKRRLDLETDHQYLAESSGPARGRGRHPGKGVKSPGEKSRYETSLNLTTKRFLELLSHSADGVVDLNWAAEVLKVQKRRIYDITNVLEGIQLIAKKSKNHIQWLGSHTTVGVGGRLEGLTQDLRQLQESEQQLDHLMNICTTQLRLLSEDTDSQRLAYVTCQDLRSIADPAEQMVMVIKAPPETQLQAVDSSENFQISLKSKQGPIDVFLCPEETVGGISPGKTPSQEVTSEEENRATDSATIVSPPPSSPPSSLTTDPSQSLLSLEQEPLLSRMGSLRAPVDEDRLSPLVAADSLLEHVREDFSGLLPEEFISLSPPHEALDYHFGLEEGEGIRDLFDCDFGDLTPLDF
UniProt Q14186: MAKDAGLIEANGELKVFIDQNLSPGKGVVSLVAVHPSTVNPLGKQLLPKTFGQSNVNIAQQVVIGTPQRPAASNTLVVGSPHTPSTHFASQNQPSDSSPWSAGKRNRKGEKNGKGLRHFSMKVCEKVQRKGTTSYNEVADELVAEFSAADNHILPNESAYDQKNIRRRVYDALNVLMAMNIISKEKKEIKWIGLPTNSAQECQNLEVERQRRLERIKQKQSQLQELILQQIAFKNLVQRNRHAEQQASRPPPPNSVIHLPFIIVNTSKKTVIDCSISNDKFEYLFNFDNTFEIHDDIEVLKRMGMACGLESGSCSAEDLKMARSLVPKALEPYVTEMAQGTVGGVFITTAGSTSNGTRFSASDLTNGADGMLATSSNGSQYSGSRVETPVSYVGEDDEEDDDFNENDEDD

binding [1]: binds
binding [2]: binds
binding [3]: binds
binding [4]: binds
B1: SB-Rb (Small BiT linked to the N-terminus of an Rb fragment) (protein)
chain: MVTGYRLFEEILGSSGGGGSGGGGSSGGAQGNSYASTRPPTLSPIPHIPRSPYKFPSSPLRIPGGNIYISPLKSPYKISEGLPTPTKMTPRSRILVSIGESFGTSEKFQKINQMVCNSDRVLKRSAEGSNPPKPLKKLRFDIEGSDEADGSKHLPGESKFQQKLAEMTSTRTRMQKQKMNDSMDTSNKEEK

Reference: patent publication US20220073935A1
